# Values from PubChem BioAssay AID743454 (Peter MacCallum Cancer Centre, 2014).
# Screen: 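Knock-downs lowering viability or raising caspase 3/7 activity in vorinostat-treated resistant cells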 (primary screen)
# Cell system: human HCT116-VR colon cancer cells, selected for vorinostat resistance
# Knock-down reagent: siRNA pool against human genes, 40 nM siRNA pool
# Timing: vorinostat for 24 h, read-out about 72 h after transfection
# Conditions: vorinostat at 2.5 µM final
# Measurement: 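Two measures, CellTiter-Fluor viability and luminescent caspase 3/7 activity, each as fold change against same-plate mock wells, mean of duplicates, then screen-wide robust z-score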
# Scale: viability robust z-score: higher = more viable cells than screen typical; caspase robust z-score: higher = more caspase 3/7 activity than screen typical
# Call rule: 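Hits are knock-downs in viability class RV1/RV2 or caspase class CA1/CA2, excluding ones that killed cells in the no-drug cell-count arm; hits then retested with single siRNAs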
# The deposit covers about 18,000 reagents; below is a random part of them. In the full data, 450 (2.5%) are marked active. 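Single biological run; no consistent viability z cut-off exists, so the class columns, not z-scores, define the calls.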 No sequences are given here.
gene knocked down,viability hit class,caspase hit class,viability robust z-score,caspase robust z-score,Outcome
MSL2 (MSL complex subunit 2),no change,no change,-0.9,2.08,inactive
HOXB13 (homeobox B13),no change,no change,-1.22,2.95,inactive
RPRD2 (regulation of nuclear pre-mRNA domain containing 2),no change,no change,0.19,-0.1,inactive
NUP98 (nucleoporin 98 and 96 precursor),no change,no change,-4.21,1.09,inactive
RANBP3L (RAN binding protein 3 like),no change,no change,0.06,-0.4,inactive
GPR183 (G protein-coupled receptor 183),no change,no change,1.31,-0.02,inactive
NLRP3 (NLR family pyrin domain containing 3),no change,no change,1.21,-0.15,inactive
ANGPT4 (angiopoietin 4),no change,no change,-1.22,0.02,inactive
PTPN23 (protein tyrosine phosphatase non-receptor type 23),no change,no change,0.24,-0.95,inactive
RBM23 (RNA binding motif protein 23),no change,no change,-1.48,1.29,inactive
BMP10 (bone morphogenetic protein 10),no change,no change,0.22,0.72,inactive
ZSCAN20 (zinc finger and SCAN domain containing 20),no change,no change,-0.65,-0.3,inactive
CHST12 (carbohydrate sulfotransferase 12),no change,no change,-1.27,2.5,inactive
FTHL17 (ferritin heavy chain like 17),no change,no change,0.48,1.24,inactive
SELL (selectin L),no change,no change,0.35,-0.05,inactive
MACIR (macrophage immunometabolism regulator),no change,no change,0.83,-0.5,inactive
TMEM209 (transmembrane protein 209),no change,no change,0.47,-0.12,inactive
OR4F4 (olfactory receptor family 4 subfamily F member 4),no change,no change,-0.26,-0.38,inactive
MRAS (muscle RAS oncogene homolog),no change,no change,0.22,2.66,inactive
GAGE6 (G antigen 6),no change,no change,-0.17,-0.12,inactive
"KPTN (kaptin, actin binding protein)",no change,no change,-0.3,1.32,inactive
TMEM47 (transmembrane protein 47),no change,no change,0.76,-0.08,inactive
WNT8B (Wnt family member 8B),no change,no change,0.69,1.98,inactive

Reformatted: 3 of the entries above.
gene knocked down | viability hit class | caspase hit class | viability robust z-score | caspase robust z-score | Outcome
MSL2 (MSL complex subunit 2) | no change | no change | -0.9 | 2.08 | inactive
HOXB13 (homeobox B13) | no change | no change | -1.22 | 2.95 | inactive
RPRD2 (regulation of nuclear pre-mRNA domain containing 2) | no change | no change | 0.19 | -0.1 | inactive
